Assay results: PubChem BioAssay AID504444 (National Center for Advancing Translational Sciences (NCATS), 2011)
Among all 360,000 compounds or so, about 7,500 (2.1%) were called active. Inconclusive means that the source gave no clear call. Such entries were picked first, then a sample of the others. Calls follow the shape of the dose curve; as a rule, active = well fitted inhibition curve with a large enough effect; inconclusive = small, poorly fitted or top-dose-only effect, or effect the other way; inactive = flat fitted curve, though single readings scatter. Potencies of inconclusive entries are doubtful fits and often do not repeat.

Experiment: Nrf2 qHTS screen for inhibitors; also: nearly all actives have a fitted effect of over 60% in size
Details: A549 ARE-Fluc reporter, luciferase luminescence, 18-24 h; series mostly up to 46 µM
Summary of the method: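 Two sequential reads on A549 ARE_Fluc cells exposed to compound for 18-24 h: a CellTiter-Fluor fluorescence read for viability, then a luciferase luminescence read for Nrf2/ARE activity.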
Potency is read from the fitted curve at half-maximal effect.

| Structure (SMILES) | Potency |
| --- | --- |
| CC(=O)/C=C(\C)N=Nc1c(O)[nH]c2ccccc12 | inconclusive: 1.46 µM [activator, full curve] |
| Fc1ccccc1/C=N/Nc1cc(N2CCCCC2)ncn1 | inconclusive: 1.64 µM [activator, full curve] |
| COc1ccccc1NC(=O)N1CCN(c2cccc(C(F)(F)F)c2)CC1 | inconclusive: 18.4 µM [falling, partial curve] |
| COc1ccc(C(=O)Nc2ccc3c(c2)Cc2ccccc2-3)cc1 | inactive |
| COc1ccc(C(=O)OC(C)C(=O)Nc2cc(C(F)(F)F)ccc2Cl)c(OC)c1OC (configuration not stated) | inconclusive: 14.6 µM [falling, partial curve] |
| Cc1ccc(-n2ncc3c2CC(C)(C)CC3NC(=O)CCN2CCCO2)cc1 (configuration not stated) | inconclusive: 13 µM [falling, partial curve, poor fit] |
| CN(Cc1ccccc1)C(=O)Nc1ccc(Cl)cc1 | inconclusive: 32.6 µM [falling, partial curve, poor fit] |
| Cc1nc(CS(=O)(=O)c2ccccc2)cc(N2CCOCC2)n1 | inconclusive: 13 µM [activator, partial curve, poor fit] |
| Brc1ccc2c(c1)C(c1cccs1)=NNC(c1cccnc1)=N2 | inconclusive: 29.1 µM [falling, single point] |
| COc1ccccc1N1CCN(C(=O)c2ccc3nc(-c4ccco4)c(-c4ccco4)nc3c2)CC1 | inconclusive: 29.1 µM [falling, single point] |
| Cc1ccc(Cl)cc1NC(=O)C1CCN(C(=O)c2cnn(-c3ccccc3)c2-n2cccc2)CC1 | inactive |
| O=[N+]([O-])c1cc(-c2nnc(-c3ccccc3)o2)ccc1Oc1ccc(Cl)cc1 | inconclusive: 14.6 µM [activator, partial curve] |
| COc1ccc(C(=O)OCC(=O)NC2CC2)cc1OC | inconclusive: 14.6 µM [falling, partial curve, poor fit] |
| Cc1noc(C)c1C(=O)Nc1nc(-c2ccc([N+](=O)[O-])cc2)cs1 | inconclusive: 9.2 µM [falling, partial curve, poor fit] |
| Cc1cc(NC(=O)CSc2nc(CC(C)(C)C)nc3c2c(=O)n(C)c(=O)n3C)no1 | inconclusive: 14.6 µM [falling, partial curve] |
| O=C(Nc1cccc(C(=O)O)c1)/C(=C\c1ccc2c(c1)OCO2)NC(=O)c1ccc(Br)o1 | inconclusive: 16.4 µM [activator, partial curve, poor fit] |
| N#Cc1sc2nc(N3CCCCC3)c3c(c2c1N)CCCC3 | inactive |
| CC1CN(S(=O)(=O)c2cccc(C(=O)Nc3ccccc3N3CCOCC3)c2)CC(C)O1 (configuration not stated) | inconclusive: 10.3 µM [falling, partial curve] |
| Cc1ccc(CC(=O)Nc2ccc(S(=O)(=O)N3CCOCC3)cc2)cc1C | inconclusive: 14.6 µM [falling, partial curve, poor fit] |
| O=C(NNC(=S)Nc1ccccc1Cl)c1ccccc1 | inconclusive: 20.6 µM [activator, partial curve] |
| Cc1ccc(Sc2ncccc2COC(=O)Nc2ccccc2)cc1 | inconclusive: 20.6 µM [falling, partial curve, poor fit] |

| Structure (SMILES) | Potency |
| --- | --- |
| COc1ccc2c(-c3ccccc3)cc(SCC(=O)NC3CCS(=O)(=O)C3)nc2c1 (configuration not stated) | inconclusive: 5.17 µM [falling, full curve, poor fit] |
| CCOc1cc(C2Nc3ccccc3C(=O)N2c2ccccc2)ccc1O (configuration not stated) | inactive |
| Cc1nc(Nc2nc3ccccc3o2)nc2c1CCCC2 | inconclusive: 23.1 µM [activator, single point] |
| CCOc1ccc2oc(C(=O)NCc3nc4ccccc4[nH]3)c(C)c2c1 | inactive |
| CC1CCC(NC(=O)Cn2c3c(c(-c4ccccc4Cl)cc2=O)CCC3)CC1 (configuration not stated) | inconclusive: 32.6 µM [falling, single point] |
| c1nc(NCCN2CCOCC2)c2sc3nc(N4CCOCC4)c4c(c3c2n1)CCC4 | inactive |
| COC(=O)Cn1ncc(N(C)Cc2ccccc2)c(Cl)c1=O | inconclusive: 10.3 µM [activator, partial curve] |
| CCC(=O)N(CCC1(C(C)C)CCOC(C)(C)C1)C(C)c1cccs1 (configuration not stated) | inconclusive: 29.1 µM [falling, single point] |
| COc1ccccc1-c1nc(S(=O)(=O)c2ccccc2)c(N2CCC(C)CC2)o1 | inconclusive: 29.1 µM [falling, single point] |
| O=C(NNC(=O)c1sc2cccc(Cl)c2c1Cl)NC1CCCCC1 | active: 9.2 µM |
| COc1ccc(CN2CCC(n3nccc3NC(=O)CCCc3ccccc3)CC2)cc1C | inconclusive: 14.6 µM [falling, partial curve, poor fit] |
| COc1ccc(CC(=O)Nc2ccc(F)c(F)c2F)cc1S(=O)(=O)N1CCOCC1 | inactive |
| CCN(CC)CCNC(=O)Cn1c(-c2ccccn2)nc2ccccc21 | inactive |
| CCCCNC(=S)NCCCc1cnc[nH]1 | inactive |
| Cc1cc2nn(-c3ccc(F)cc3)nc2cc1N | inconclusive: 2.06 µM [activator, partial curve, poor fit] |
| O=C(Nc1cccc(/C=C/c2nc3ccccc3c(=O)[nH]2)c1)c1ccccc1Cl | inconclusive: 20.6 µM [falling, partial curve] |
| COc1ccc(CN=C2NN=C(c3ccccc3)CS2)cc1 | inconclusive: 14.6 µM [activator, partial curve] |
| CN(C(=O)c1c2c(nc3ccccc13)C(=O)N(C1CCCCC1)C2)c1ccc(F)cc1 | inconclusive: 2.31 µM [falling, partial curve, poor fit] |
| CCCn1c(N)c(C(=O)CN(C)CC(=O)Nc2cc(C)ccc2C)c(=O)[nH]c1=O | inconclusive: 20.6 µM [falling, partial curve] |
| CCOC(=O)c1ccc(OCC(=O)c2ccc(O)cc2O)cc1 | inconclusive: 18.4 µM [falling, partial curve, poor fit] |
| CC(C)(C)OC(=O)N1CCC(c2c(C(=O)N3CCC(c4ccccc4)C3)cnn2-c2ccc(Cl)cc2)CC1 (configuration not stated) | inconclusive: 18.4 µM [falling, single point] |

Reformatted with tabs: entries from further up.
Structure (SMILES)	Potency
COc1ccc(C(=O)OCC(=O)NC2CC2)cc1OC	inconclusive: 14.6 µM [falling, partial curve, poor fit]
Cc1noc(C)c1C(=O)Nc1nc(-c2ccc([N+](=O)[O-])cc2)cs1	inconclusive: 9.2 µM [falling, partial curve, poor fit]
Cc1cc(NC(=O)CSc2nc(CC(C)(C)C)nc3c2c(=O)n(C)c(=O)n3C)no1	inconclusive: 14.6 µM [falling, partial curve]
